Source: PubChem BioAssay AID2685 (National Center for Advancing Translational Sciences (NCATS), 2010)
The campaign covered roughly 320,000 compounds. About 2,100 (0.66%) were called active. The shares of active, inactive and inconclusive entries below differ from those in the screen. Calls follow the shape of the dose curve; as a rule, active = well fitted inhibition curve with a large enough effect in the signal ratio, with a control signal flat (not every such curve was filed as active); inconclusive = small, poorly fitted or top-dose-only effect, or effect the other way, or a change in a side signal; inactive = flat fitted curve, though single readings scatter; the % refers to the signal ratio. Potencies of inconclusive entries are doubtful fits and often do not repeat.

Assay: qHTS Assay for Lipid Storage Modulators in Drosophila S3 Cells
Conditions: BODIPY lipid droplet fluorescence, 18-24 h, cells fed with added oleic acid; lipid storage change, negative = inhibition: at 46.1 µM (top of the series) unless noted
How it was run: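 Drosophila S3 cells got compounds at several concentrations plus oleic acid (400 uM solution). Laser-scanning cytometry with 488 nm excitation read lipid droplets at 500-530 nm and cells at 575-640 nm. Percent activity was relative to 20 uM Triacsin C.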
% is scaled to controls: 0 for no effect and ±100 for the full control effect; potency is read from the fitted curve at half-maximal effect.

Row | Compound | lipid storage change, negative = inhibition | Potency
1 | Cc1ccc(CN2CC(C(=O)Nc3cc(S(C)(=O)=O)ccc3Cl)CC2=O)cc1 (stereo unspecified) | inconclusive: 42.7% | –
2 | O=C(CNS(=O)(=O)c1cccc2nsnc12)NCCc1ccccc1 | – | inconclusive: 29.1 µM [falling, single point]
3 | Cc1ccccc1NC(=O)c1c(C)cc(=O)oc1C | inactive | –
4 | CC(=O)c1cc2c(cc1NC(=O)Cn1nc(-c3ccc(C)cc3)ccc1=O)OCO2 | inconclusive: 5.61% | –
5 | COc1ccc(C2(c3ccc(OC)cc3)NC(=O)N(CC(=O)N(C)C3CCC(C)CC3)C2=O)cc1 (stereo unspecified) | – | inconclusive: 2.31 µM [activator, partial curve]
6 | N/C(=N\OS(=O)(=O)c1ccc(Br)cc1)c1ccncc1 | inconclusive: 15% | –
7 | COc1ccc(C(CC(=O)c2ccccc2)C2CCCCC2=O)cc1 (stereo unspecified) | inconclusive: 149% | –
8 | COc1cccc(/C=C/c2nc(S(=O)(=O)c3ccccc3)c(N(C)C)o2)c1 | – | inconclusive: 6.51 µM [activator, single point]
9 | O=C1CCc2cc(NS(=O)(=O)c3cc(F)ccc3F)cc3c2N1CC3 | inconclusive: 20.4% | –
10 | CCOc1ccc(NC(=O)CCC(=O)NNC(=O)c2ccco2)cc1 | inactive | –
11 | CCCNC(=O)Cn1cnc2sc(C(=O)N3CCCC(C(=O)OCC)C3)c(C)c2c1=O (stereo unspecified) | inactive | –
12 | COc1ccccc1C(=O)Nc1ccc(S(=O)(=O)N2CCOCC2)cc1 | – | inconclusive: 0.326 µM [activator, full curve, poor fit]
13 | NC(=O)c1ccc(N2CCCCC2)c(N2C(=O)CCC2=O)c1 | inconclusive: -24.1% | –
14 | O=C(NCc1ccccn1)C1CCN(S(=O)(=O)c2cnc[nH]2)CC1 | inactive | –
15 | O=c1oc2cc(O)ccc2cc1-c1ccccc1 | – | inconclusive: 23.1 µM [activator, partial curve]
16 | COc1cc(/C=C\C(=O)O)cc(S(=O)(=O)N2CCCCCC2)c1OC | inconclusive: -7.29% | –
17 | Cc1c(C(=O)N2CCC2)oc2ccc(Br)cc12 | – | inconclusive: 16.4 µM [rising, partial curve]
18 | COc1ccc2nc(SCC(=O)N(C)CC(=O)Nc3ccc(F)cc3)[nH]c2c1 | – | inconclusive: 1.16 µM [falling, full curve]
19 | CCN1C(=O)[C@@H]2Cc3c([nH]c4ccccc34)C(c3cc(OC)c(OC)c(OC)c3)N2C1=S (stereo partly specified) | – | inconclusive: 29.1 µM [falling, single point]
20 | Cc1nn(C)c(Oc2cccc(Cl)c2)c1C=O | – | inconclusive: 0.13 µM [falling, full curve, poor fit]
21 | CCCCOC(=O)Nc1cccc(C(C)=O)c1 | inconclusive: 0.722% | –

3 entries from above, ordered by molecular weight, high to low.
Row | Compound | lipid storage change, negative = inhibition | Potency
1 | Cc1ccc(CN2CC(C(=O)Nc3cc(S(C)(=O)=O)ccc3Cl)CC2=O)cc1 (stereo unspecified) | inconclusive: 42.7% | –
4 | CC(=O)c1cc2c(cc1NC(=O)Cn1nc(-c3ccc(C)cc3)ccc1=O)OCO2 | inconclusive: 5.61% | –
9 | O=C1CCc2cc(NS(=O)(=O)c3cc(F)ccc3F)cc3c2N1CC3 | inconclusive: 20.4% | –
